# Measured values as given in patent publication US20220056146A1.
# These are yes or no findings as the source states them, for the method shown. Some results given as binding are weak or reduced against the parent protein; the word gives no strength.
# B1: CD 226 (DNAM 1) as cell membrane receptor (receptor, UniProt Q15762 19-336, looked up)
# chain: EEVLWHTSVPFAENMSLECVYPSMGILTQVEWFKIGTQQDSIAIFSPTHGMVIRKPYAERVYFLNSTMASNNMTLFFRNASEDDVGYYSCSLYTYPQGTWQKVIQVVQSDSFEAAVPSNSHIVSEPGKNVTLTCQPQMTWPVQAVRWEKIQPRQIDLLTYCNLVHGRNFTSKFPRQIVSNCSHGRWSVIVIPDVTVSDSGLYRCYLQASAGENETFVMRLTVAEGKTDNQYTLFVAGGTVLLLLFVISITTIIVIFLNRRRRRERRDLFTESWDTQKAPNNYRSPISTSQPTNQSMDDTREDIYVNYPTFSRRPKTRV
# Biological target: T1, PVR (CD 155) as cell membrane receptor in the binding assay with over 5000 membrane receptors (UniProt P15151)
# T1 sequence (looked up): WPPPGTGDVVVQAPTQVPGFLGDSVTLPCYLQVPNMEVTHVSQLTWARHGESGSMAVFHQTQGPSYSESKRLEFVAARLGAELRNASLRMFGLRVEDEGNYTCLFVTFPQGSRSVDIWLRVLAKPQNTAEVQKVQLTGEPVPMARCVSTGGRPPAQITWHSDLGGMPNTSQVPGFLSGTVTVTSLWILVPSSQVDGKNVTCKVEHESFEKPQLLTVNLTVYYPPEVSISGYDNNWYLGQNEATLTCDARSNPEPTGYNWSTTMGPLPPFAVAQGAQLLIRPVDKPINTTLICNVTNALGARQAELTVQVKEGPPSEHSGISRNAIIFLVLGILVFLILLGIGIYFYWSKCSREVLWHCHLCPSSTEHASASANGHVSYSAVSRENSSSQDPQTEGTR
# Experiment: binding assay on over 5000 membrane receptors, inverse hit
binder,measurement,value
B1,binding,binds
